Test results from patent publication US20100022559A1, “BISOXIMES AS FUNGICIDES” (BAYER CROPSCIENCE AG, priority 2006, published 2010).
Some entries share one result that the patent states for a list of compounds. At least one structure is not confirmed: it was looked up by name or label, or the drawing left a doubt.

The compounds below were run on Venturia inaequalis (assay: Venturia test (apple)/protective). Details: active compound concentration 100 ppm, protective, evaluation 10 days after inoculation.
Format: in vivo

SMILES	efficacy
CC(=NOCC(C)CON=C(C)c1cc(C)cc(C)n1)c1cccc(C)n1 (centres unmarked) [Compound 499]	≥ 70%
CCC(=NOCCCON=C(CC)c1cccc(C)n1)c1cccc(C)n1 [Compound 90]	≥ 70%
CC(=NOCC(C)CON=C(C)c1cc(C)cc(C)n1)c1cc(C)cc(C)n1 (centres unmarked) [Compound 225]	≥ 70%
CC(=NOCCCON=C(C)c1cccc(C)n1)c1cccc(C)n1 [Compound 14]	≥ 70%
CCC(=NOCC(C)CON=C(CC)c1cccc(C)n1)c1cccc(C)n1 (centres unmarked) [Compound 116]	≥ 70%
CC(=NOCC(C)(C)CON=C(C)c1cc(C)cc(C)n1)c1cccc(C)n1 [Compound 487]	≥ 70%
CC(=NOCC(C)CON=C(C)c1cccc(C)n1)c1cccc(C)n1 (centres unmarked) [Compound 1]	≥ 70%
CC(=NOCC(C)CON=C(C)c1cccc(C)n1)c1cccc(C)n1.[Cl][Co][Cl] (centres unmarked) [Compound 296]	≥ 70%
CC(=NOC(C)CC(C)ON=C(C)c1cc(C)cc(C)n1)c1cc(C)cc(C)n1 (centres unmarked) [Compound 557]	≥ 70%
CC(=NOCC(C)CON=C(C)c1ccc(C)c(C)n1)c1ccc(C)c(C)n1 (centres unmarked) [Compound 118]	≥ 70%
CC(=NOCC1(CON=C(C)c2ccc(C)c(C)n2)CC1)c1cccc(C)n1 [Compound 786]	≥ 70%
CCC(=NOCC(C)CON=C(CC)c1ccc(C)c(C)n1)c1ccc(C)c(C)n1 (centres unmarked) [Compound 235]	≥ 70%

The compounds below were run on Botrytis cinerea (assay: Botrytis test (bean)/protective). Details: active compound concentration 250 ppm, protective, evaluation 2 days after inoculation.
Format: in vivo

SMILES	efficacy
CC(=NOCC(C)CON=C(C)c1cc(C)cc(C)n1)c1cccc(C)n1 (centres unmarked) [Compound 499]	≥ 70%
CCC(=NOCCCON=C(CC)c1cccc(C)n1)c1cccc(C)n1 [Compound 90]	≥ 70%
CC(=NOCC(C)CON=C(C)c1cc(C)cc(C)n1)c1cc(C)cc(C)n1 (centres unmarked) [Compound 225]	≥ 70%
CC(=NOCCCON=C(C)c1cccc(C)n1)c1cccc(C)n1 [Compound 14]	≥ 70%
CCC(=NOCC(C)CON=C(CC)c1cccc(C)n1)c1cccc(C)n1 (centres unmarked) [Compound 116]	≥ 70%
CC(=NOCC(C)(C)CON=C(C)c1cc(C)cc(C)n1)c1cccc(C)n1 [Compound 487]	≥ 70%
CC(=NOCC(C)CON=C(C)c1cccc(C)n1)c1cccc(C)n1 (centres unmarked) [Compound 1]	≥ 70%
CC(=NOCC(C)CON=C(C)c1cccc(C)n1)c1cccc(C)n1.[Cl][Co][Cl] (centres unmarked) [Compound 296]	≥ 70%
CC(=NOC(C)CC(C)ON=C(C)c1cc(C)cc(C)n1)c1cc(C)cc(C)n1 (centres unmarked) [Compound 557]	≥ 70%
CC(=NOCC(C)CON=C(C)c1ccc(C)c(C)n1)c1ccc(C)c(C)n1 (centres unmarked) [Compound 118]	≥ 70%
CC(=NOCC1(CON=C(C)c2ccc(C)c(C)n2)CC1)c1cccc(C)n1 [Compound 786]	≥ 70%
CCC(=NOCC(C)CON=C(CC)c1ccc(C)c(C)n1)c1ccc(C)c(C)n1 (centres unmarked) [Compound 235]	≥ 70%

What follows are compounds tested on Puccinia recondita (assay: Puccinia test (wheat)/protective). Details: active compound concentration 500 ppm, protective, evaluation 8-10 days after inoculation.
Format: in vivo

SMILES	efficacy
CC(=NOCC(C)CON=C(C)c1cc(C)cc(C)n1)c1cccc(C)n1 (centres unmarked) [Compound 499]	≥ 70%
CCC(=NOCCCON=C(CC)c1cccc(C)n1)c1cccc(C)n1 [Compound 90]	≥ 70%
CC(=NOCC(C)CON=C(C)c1cc(C)cc(C)n1)c1cc(C)cc(C)n1 (centres unmarked) [Compound 225]	≥ 70%
CC(=NOCCCON=C(C)c1cccc(C)n1)c1cccc(C)n1 [Compound 14]	≥ 70%
CCC(=NOCC(C)CON=C(CC)c1cccc(C)n1)c1cccc(C)n1 (centres unmarked) [Compound 116]	≥ 70%
CC(=NOCC(C)(C)CON=C(C)c1cc(C)cc(C)n1)c1cccc(C)n1 [Compound 487]	≥ 70%
CC(=NOCC(C)CON=C(C)c1cccc(C)n1)c1cccc(C)n1 (centres unmarked) [Compound 1]	≥ 70%
CC(=NOCC(C)CON=C(C)c1cccc(C)n1)c1cccc(C)n1.[Cl][Co][Cl] (centres unmarked) [Compound 296]	≥ 70%
CC(=NOC(C)CC(C)ON=C(C)c1cc(C)cc(C)n1)c1cc(C)cc(C)n1 (centres unmarked) [Compound 557]	≥ 70%
CC(=NOCC(C)CON=C(C)c1ccc(C)c(C)n1)c1ccc(C)c(C)n1 (centres unmarked) [Compound 118]	≥ 70%
CC(=NOCC1(CON=C(C)c2ccc(C)c(C)n2)CC1)c1cccc(C)n1 [Compound 786]	≥ 70%
CCC(=NOCC(C)CON=C(CC)c1ccc(C)c(C)n1)c1ccc(C)c(C)n1 (centres unmarked) [Compound 235]	≥ 70%

Each compound was assayed on Alternaria solani (assay: Alternaria test (tomato)/protective). Details: active compound concentration 500 ppm, protective, evaluation 7 days after inoculation.
Format: in vivo

SMILES	efficacy
CC(=NOCC(C)CON=C(C)c1cc(C)cc(C)n1)c1cccc(C)n1 (centres unmarked) [Compound 499]	≥ 70%
CC(=NOCC(C)CON=C(C)c1cc(C)cc(C)n1)c1cc(C)cc(C)n1 (centres unmarked) [Compound 225]	≥ 70%
CC(=NOCCCON=C(C)c1cccc(C)n1)c1cccc(C)n1 [Compound 14]	≥ 70%
CCC(=NOCC(C)CON=C(CC)c1cccc(C)n1)c1cccc(C)n1 (centres unmarked) [Compound 116]	≥ 70%
CC(=NOCC(C)(C)CON=C(C)c1cc(C)cc(C)n1)c1cccc(C)n1 [Compound 487]	≥ 70%
CC(=NOCC(C)CON=C(C)c1cccc(C)n1)c1cccc(C)n1 (centres unmarked) [Compound 1]	≥ 70%
CC(=NOCC(C)CON=C(C)c1cccc(C)n1)c1cccc(C)n1.[Cl][Co][Cl] (centres unmarked) [Compound 296]	≥ 70%
CC(=NOC(C)CC(C)ON=C(C)c1cc(C)cc(C)n1)c1cc(C)cc(C)n1 (centres unmarked) [Compound 557]	≥ 70%
CC(=NOCC(C)CON=C(C)c1ccc(C)c(C)n1)c1ccc(C)c(C)n1 (centres unmarked) [Compound 118]	≥ 70%
CC(=NOCC1(CON=C(C)c2ccc(C)c(C)n2)CC1)c1cccc(C)n1 [Compound 786]	≥ 70%
CCC(=NOCC(C)CON=C(CC)c1ccc(C)c(C)n1)c1ccc(C)c(C)n1 (centres unmarked) [Compound 235]	≥ 70%

What follows are compounds tested on Sphaerotheca fuliginea (assay: Sphaerotheca test (cucumber)/protective). Details: active compound concentration 500 ppm, protective, evaluation 7 days after inoculation.
Format: in vivo

SMILES	efficacy
CC(=NOCC(C)CON=C(C)c1cc(C)cc(C)n1)c1cccc(C)n1 (centres unmarked) [Compound 499]	≥ 70%
CC(=NOCC(C)CON=C(C)c1cc(C)cc(C)n1)c1cc(C)cc(C)n1 (centres unmarked) [Compound 225]	≥ 70%
CC(=NOCCCON=C(C)c1cccc(C)n1)c1cccc(C)n1 [Compound 14]	≥ 70%
CC(=NOCC(C)(C)CON=C(C)c1cc(C)cc(C)n1)c1cccc(C)n1 [Compound 487]	≥ 70%
CC(=NOCC(C)CON=C(C)c1cccc(C)n1)c1cccc(C)n1 (centres unmarked) [Compound 1]	≥ 70%
CC(=NOCC(C)CON=C(C)c1cccc(C)n1)c1cccc(C)n1.[Cl][Co][Cl] (centres unmarked) [Compound 296]	≥ 70%
CC(=NOC(C)CC(C)ON=C(C)c1cc(C)cc(C)n1)c1cc(C)cc(C)n1 (centres unmarked) [Compound 557]	≥ 70%
CC(=NOCC(C)CON=C(C)c1ccc(C)c(C)n1)c1ccc(C)c(C)n1 (centres unmarked) [Compound 118]	≥ 70%
CC(=NOCC1(CON=C(C)c2ccc(C)c(C)n2)CC1)c1cccc(C)n1 [Compound 786]	≥ 70%
CCC(=NOCC(C)CON=C(CC)c1ccc(C)c(C)n1)c1ccc(C)c(C)n1 (centres unmarked) [Compound 235]	≥ 70%

Each compound was assayed on Pyrenophora teres (assay: Pyrenophora teres test (barley)/protective). Details: active compound concentration 1000 ppm, protective, evaluation 8 days after inoculation.
Format: in vivo

SMILES	efficacy
CC(=NOCC(C)CON=C(C)c1cc(C)cc(C)n1)c1cccc(C)n1 (centres unmarked) [Compound 499]	≥ 70%
CCC(=NOCCCON=C(CC)c1cccc(C)n1)c1cccc(C)n1 [Compound 90]	≥ 70%
CC(=NOCC(C)CON=C(C)c1cc(C)cc(C)n1)c1cc(C)cc(C)n1 (centres unmarked) [Compound 225]	≥ 70%
CC(=NOCCCON=C(C)c1cccc(C)n1)c1cccc(C)n1 [Compound 14]	≥ 70%
CCC(=NOCC(C)CON=C(CC)c1cccc(C)n1)c1cccc(C)n1 (centres unmarked) [Compound 116]	≥ 70%
CC(=NOCC(C)(C)CON=C(C)c1cc(C)cc(C)n1)c1cccc(C)n1 [Compound 487]	≥ 70%
CC(=NOCC(C)CON=C(C)c1cccc(C)n1)c1cccc(C)n1 (centres unmarked) [Compound 1]	≥ 70%
CC(=NOCC(C)CON=C(C)c1cccc(C)n1)c1cccc(C)n1.[Cl][Co][Cl] (centres unmarked) [Compound 296]	≥ 70%
CC(=NOC(C)CC(C)ON=C(C)c1cc(C)cc(C)n1)c1cc(C)cc(C)n1 (centres unmarked) [Compound 557]	≥ 70%
CC(=NOCC(C)CON=C(C)c1ccc(C)c(C)n1)c1ccc(C)c(C)n1 (centres unmarked) [Compound 118]	≥ 70%
CC(=NOCC1(CON=C(C)c2ccc(C)c(C)n2)CC1)c1cccc(C)n1 [Compound 786]	≥ 70%
CCC(=NOCC(C)CON=C(CC)c1ccc(C)c(C)n1)c1ccc(C)c(C)n1 (centres unmarked) [Compound 235]	≥ 70%

These compounds were tested on greenhouse red spidermite (Tetranychus urticae) (assay: Tetranychus test, OP-resistant (spray treatment)). Details: active compound concentration 500 ppm, after 4 days, bean leaf discs.
Format: in vivo

SMILES	efficacy
CC(=NOCC(C)CON=C(C)c1cccc(C)n1)c1cccc(C)n1 (centres unmarked) [Compound 1]	≥ 85%

What follows are compounds tested on Leptosphaeria nodorum (assay: Leptosphaeria nodorum test (wheat)/protective). Details: active compound concentration 1000 ppm, protective, evaluation 10 days after inoculation.
Format: in vivo

SMILES	efficacy
CC(=NOCC(C)CON=C(C)c1cc(C)cc(C)n1)c1cccc(C)n1 (centres unmarked) [Compound 499]	≥ 70%
CCC(=NOCCCON=C(CC)c1cccc(C)n1)c1cccc(C)n1 [Compound 90]	≥ 70%
CC(=NOCC(C)CON=C(C)c1cc(C)cc(C)n1)c1cc(C)cc(C)n1 (centres unmarked) [Compound 225]	≥ 70%
CC(=NOCCCON=C(C)c1cccc(C)n1)c1cccc(C)n1 [Compound 14]	≥ 70%
CCC(=NOCC(C)CON=C(CC)c1cccc(C)n1)c1cccc(C)n1 (centres unmarked) [Compound 116]	≥ 70%
CC(=NOCC(C)(C)CON=C(C)c1cc(C)cc(C)n1)c1cccc(C)n1 [Compound 487]	≥ 70%
CC(=NOCC(C)CON=C(C)c1cccc(C)n1)c1cccc(C)n1 (centres unmarked) [Compound 1]	≥ 70%
CC(=NOCC(C)CON=C(C)c1cccc(C)n1)c1cccc(C)n1.[Cl][Co][Cl] (centres unmarked) [Compound 296]	≥ 70%
CC(=NOC(C)CC(C)ON=C(C)c1cc(C)cc(C)n1)c1cc(C)cc(C)n1 (centres unmarked) [Compound 557]	≥ 70%
CC(=NOCC(C)CON=C(C)c1ccc(C)c(C)n1)c1ccc(C)c(C)n1 (centres unmarked) [Compound 118]	≥ 70%
CC(=NOCC1(CON=C(C)c2ccc(C)c(C)n2)CC1)c1cccc(C)n1 [Compound 786]	≥ 70%
CCC(=NOCC(C)CON=C(CC)c1ccc(C)c(C)n1)c1ccc(C)c(C)n1 (centres unmarked) [Compound 235]	≥ 70%

These compounds were tested on Leptosphaeria maculans (assay: Leptosphaeria Maculans Test (Cereal)/Seed Treatment). Details: 50 g/100 kg of seed; seed treatment; evaluation after about 3 weeks.
Format: in vivo

SMILES	efficacy
CC(=NOCC(C)CON=C(C)c1cccc(C)n1)c1cccc(C)n1 (centres unmarked) [Compound 1]	≥ 70%
CC(=NOCC(C)CON=C(C)c1ccc(C)c(C)n1)c1ccc(C)c(C)n1 (centres unmarked) [Compound 118]	≥ 70%

Each compound was assayed on Septoria tritici (assay: Septoria tritici Test (Cereal)/Seed Treatment). Details: 50 g/100 kg of seed; seed treatment.
Format: in vivo

SMILES	efficacy
CCC(=NOCCCON=C(CC)c1cccc(C)n1)c1cccc(C)n1 [Compound 90]	≥ 70%
CCC(=NOCC(C)CON=C(CC)c1cccc(C)n1)c1cccc(C)n1 (centres unmarked) [Compound 116]	≥ 70%
